Data from publication PMC3917433.
No constants are given. Whether binding was seen depends on the method and setting. Some results given as binding are weak or reduced against the parent protein; the word gives no strength. For part of these data: Where a sequence is shown, tags or fusion partners need not be part of it.

By UniProt entry, the sequences of proteins in these tests, tags left out.
UniProt O75145: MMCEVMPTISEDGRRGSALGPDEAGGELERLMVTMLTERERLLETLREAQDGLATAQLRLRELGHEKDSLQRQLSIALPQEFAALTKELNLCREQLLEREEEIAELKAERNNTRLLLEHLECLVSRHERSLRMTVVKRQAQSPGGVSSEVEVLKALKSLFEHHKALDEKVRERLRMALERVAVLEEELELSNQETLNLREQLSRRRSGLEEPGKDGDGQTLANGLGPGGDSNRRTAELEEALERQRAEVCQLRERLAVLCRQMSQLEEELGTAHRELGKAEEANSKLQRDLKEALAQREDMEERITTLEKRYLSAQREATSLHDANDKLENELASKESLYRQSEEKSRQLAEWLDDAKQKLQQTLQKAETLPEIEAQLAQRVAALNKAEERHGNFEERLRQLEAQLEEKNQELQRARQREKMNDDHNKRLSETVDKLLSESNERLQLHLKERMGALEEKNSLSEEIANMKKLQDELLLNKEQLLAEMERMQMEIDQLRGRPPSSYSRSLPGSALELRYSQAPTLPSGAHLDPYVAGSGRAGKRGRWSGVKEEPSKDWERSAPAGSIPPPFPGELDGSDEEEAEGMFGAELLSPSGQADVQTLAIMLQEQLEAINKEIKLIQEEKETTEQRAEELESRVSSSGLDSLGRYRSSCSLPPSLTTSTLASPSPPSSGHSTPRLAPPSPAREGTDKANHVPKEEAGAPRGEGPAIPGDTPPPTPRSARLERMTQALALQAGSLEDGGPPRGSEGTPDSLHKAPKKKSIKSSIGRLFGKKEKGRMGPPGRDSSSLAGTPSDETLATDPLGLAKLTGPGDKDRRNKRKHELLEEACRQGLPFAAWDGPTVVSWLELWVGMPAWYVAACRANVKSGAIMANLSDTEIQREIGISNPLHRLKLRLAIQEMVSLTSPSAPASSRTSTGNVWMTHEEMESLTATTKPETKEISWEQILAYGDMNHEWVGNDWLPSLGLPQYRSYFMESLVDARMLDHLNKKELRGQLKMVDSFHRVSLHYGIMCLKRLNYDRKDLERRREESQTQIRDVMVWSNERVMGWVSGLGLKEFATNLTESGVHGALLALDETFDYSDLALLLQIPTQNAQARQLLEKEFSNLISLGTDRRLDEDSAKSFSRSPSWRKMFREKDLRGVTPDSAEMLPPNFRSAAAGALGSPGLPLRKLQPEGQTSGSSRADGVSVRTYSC
UniProt Q9ULD4: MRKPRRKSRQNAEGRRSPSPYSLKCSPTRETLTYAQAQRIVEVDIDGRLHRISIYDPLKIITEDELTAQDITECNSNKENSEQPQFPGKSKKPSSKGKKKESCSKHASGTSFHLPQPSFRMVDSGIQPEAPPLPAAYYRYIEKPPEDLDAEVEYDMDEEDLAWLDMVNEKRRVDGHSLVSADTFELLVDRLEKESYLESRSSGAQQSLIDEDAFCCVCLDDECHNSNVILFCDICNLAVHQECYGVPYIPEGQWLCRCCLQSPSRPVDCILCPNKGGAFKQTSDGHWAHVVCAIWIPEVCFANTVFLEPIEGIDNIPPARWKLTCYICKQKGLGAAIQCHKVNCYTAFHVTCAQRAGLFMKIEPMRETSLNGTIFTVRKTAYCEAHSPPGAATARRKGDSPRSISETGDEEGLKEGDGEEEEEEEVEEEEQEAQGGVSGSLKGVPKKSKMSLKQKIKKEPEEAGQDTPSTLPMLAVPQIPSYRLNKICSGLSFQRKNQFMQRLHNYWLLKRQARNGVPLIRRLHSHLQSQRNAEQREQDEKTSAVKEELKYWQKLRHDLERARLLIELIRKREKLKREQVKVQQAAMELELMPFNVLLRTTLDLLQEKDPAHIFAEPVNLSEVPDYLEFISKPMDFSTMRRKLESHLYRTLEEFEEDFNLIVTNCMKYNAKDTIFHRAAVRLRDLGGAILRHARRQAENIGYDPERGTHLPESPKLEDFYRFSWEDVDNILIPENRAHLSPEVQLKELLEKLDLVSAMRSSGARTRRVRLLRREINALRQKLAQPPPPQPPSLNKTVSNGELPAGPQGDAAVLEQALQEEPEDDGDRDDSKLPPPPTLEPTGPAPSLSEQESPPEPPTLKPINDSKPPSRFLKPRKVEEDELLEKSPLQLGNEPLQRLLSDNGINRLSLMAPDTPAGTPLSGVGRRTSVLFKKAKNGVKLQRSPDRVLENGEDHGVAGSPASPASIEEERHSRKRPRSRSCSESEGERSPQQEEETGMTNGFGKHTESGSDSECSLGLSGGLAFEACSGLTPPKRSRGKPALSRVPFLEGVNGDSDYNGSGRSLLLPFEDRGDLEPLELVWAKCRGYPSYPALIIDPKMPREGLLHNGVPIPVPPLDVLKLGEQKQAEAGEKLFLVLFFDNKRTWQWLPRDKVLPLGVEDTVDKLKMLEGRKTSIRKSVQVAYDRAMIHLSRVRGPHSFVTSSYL
UniProt P18615: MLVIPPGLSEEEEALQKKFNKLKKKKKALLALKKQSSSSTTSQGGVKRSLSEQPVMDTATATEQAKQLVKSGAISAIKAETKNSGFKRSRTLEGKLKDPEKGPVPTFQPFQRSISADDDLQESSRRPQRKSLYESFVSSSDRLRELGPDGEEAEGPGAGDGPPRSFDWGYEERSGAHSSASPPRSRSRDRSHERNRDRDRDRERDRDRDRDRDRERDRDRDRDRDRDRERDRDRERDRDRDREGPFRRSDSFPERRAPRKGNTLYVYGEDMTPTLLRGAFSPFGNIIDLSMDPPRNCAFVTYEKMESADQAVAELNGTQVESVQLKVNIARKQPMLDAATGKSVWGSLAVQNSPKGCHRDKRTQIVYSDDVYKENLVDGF
UniProt P13202: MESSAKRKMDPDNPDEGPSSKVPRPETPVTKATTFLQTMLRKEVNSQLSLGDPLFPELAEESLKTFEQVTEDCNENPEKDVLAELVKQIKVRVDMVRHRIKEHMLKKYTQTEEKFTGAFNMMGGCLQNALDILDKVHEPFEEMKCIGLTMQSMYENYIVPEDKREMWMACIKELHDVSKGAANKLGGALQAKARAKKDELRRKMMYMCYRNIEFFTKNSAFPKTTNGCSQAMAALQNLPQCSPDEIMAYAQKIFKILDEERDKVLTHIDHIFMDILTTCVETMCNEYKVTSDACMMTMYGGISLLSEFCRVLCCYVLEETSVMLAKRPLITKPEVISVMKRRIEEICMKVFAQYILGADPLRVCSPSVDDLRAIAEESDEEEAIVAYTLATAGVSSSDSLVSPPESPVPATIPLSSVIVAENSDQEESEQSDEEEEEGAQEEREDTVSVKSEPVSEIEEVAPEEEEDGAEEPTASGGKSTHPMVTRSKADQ

Assays:
Assay in all cases: peptide or protein array; only the binder purified
[1] = molecular target: T1, ADP-ribosylation factor binding protein GGA1 (human) (UniProt Q9UJY5)
T1 sequence: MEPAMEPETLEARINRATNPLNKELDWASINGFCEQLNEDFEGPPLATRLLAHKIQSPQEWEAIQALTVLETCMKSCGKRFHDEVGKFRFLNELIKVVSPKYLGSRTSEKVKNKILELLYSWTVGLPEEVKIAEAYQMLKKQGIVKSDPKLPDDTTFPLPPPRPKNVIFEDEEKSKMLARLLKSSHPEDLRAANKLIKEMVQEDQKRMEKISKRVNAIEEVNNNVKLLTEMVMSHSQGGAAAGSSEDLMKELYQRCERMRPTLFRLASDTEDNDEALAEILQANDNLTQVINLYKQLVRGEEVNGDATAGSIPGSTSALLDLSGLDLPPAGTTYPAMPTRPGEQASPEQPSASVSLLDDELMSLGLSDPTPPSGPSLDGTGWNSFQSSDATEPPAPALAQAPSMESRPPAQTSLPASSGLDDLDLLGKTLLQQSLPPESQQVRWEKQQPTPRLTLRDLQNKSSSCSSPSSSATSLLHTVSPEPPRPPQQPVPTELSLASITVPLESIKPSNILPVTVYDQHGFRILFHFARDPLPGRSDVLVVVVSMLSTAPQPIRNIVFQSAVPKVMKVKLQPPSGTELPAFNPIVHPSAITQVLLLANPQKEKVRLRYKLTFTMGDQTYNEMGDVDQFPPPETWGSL

[2] = molecular target: Protein tyrosine phosphatase, receptor type f polypeptide (PTPRF), interacting protein (liprin), alpha 3 (PPFIA3) (human) (UniProt O75145)
[3] = molecular target: Bromodomain and PHD finger containing, 3 (BRPF3) (human) (UniProt Q9ULD4)
[4] = molecular target: T2, Tripartite motif-containing 33 (TRIM33) (human) (UniProt Q9UPN9)
T2 sequence: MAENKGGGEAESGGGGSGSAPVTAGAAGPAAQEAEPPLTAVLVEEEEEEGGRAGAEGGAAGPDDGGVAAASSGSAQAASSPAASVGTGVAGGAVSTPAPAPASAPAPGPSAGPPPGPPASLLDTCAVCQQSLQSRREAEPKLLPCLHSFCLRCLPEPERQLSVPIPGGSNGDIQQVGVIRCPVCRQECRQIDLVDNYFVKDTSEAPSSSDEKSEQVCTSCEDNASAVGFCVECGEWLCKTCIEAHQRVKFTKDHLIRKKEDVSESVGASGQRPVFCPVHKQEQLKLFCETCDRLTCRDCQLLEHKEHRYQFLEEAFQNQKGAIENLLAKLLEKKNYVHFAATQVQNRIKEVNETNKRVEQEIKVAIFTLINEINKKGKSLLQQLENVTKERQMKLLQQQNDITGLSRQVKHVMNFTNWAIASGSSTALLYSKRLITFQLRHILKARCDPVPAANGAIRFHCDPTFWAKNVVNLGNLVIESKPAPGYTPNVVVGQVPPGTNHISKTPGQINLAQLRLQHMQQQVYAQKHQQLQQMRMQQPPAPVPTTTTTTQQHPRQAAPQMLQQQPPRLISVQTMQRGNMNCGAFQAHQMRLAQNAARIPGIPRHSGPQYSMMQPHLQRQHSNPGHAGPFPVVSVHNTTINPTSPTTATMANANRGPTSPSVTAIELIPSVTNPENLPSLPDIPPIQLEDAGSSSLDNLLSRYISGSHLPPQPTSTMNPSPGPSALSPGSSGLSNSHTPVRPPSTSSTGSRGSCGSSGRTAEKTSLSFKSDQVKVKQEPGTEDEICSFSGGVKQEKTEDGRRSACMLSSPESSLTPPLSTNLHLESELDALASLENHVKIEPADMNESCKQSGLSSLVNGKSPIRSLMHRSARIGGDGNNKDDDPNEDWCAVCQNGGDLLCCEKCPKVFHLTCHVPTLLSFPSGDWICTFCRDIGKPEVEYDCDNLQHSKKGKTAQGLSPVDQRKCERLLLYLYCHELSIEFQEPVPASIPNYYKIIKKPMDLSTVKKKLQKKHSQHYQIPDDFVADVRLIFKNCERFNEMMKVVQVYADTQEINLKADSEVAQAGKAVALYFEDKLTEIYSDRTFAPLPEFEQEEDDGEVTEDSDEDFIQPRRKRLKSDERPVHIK

[5] = molecular target: T3, Histone deacetylase 10 (HDAC10) (human) (UniProt Q969S8)
T3 sequence: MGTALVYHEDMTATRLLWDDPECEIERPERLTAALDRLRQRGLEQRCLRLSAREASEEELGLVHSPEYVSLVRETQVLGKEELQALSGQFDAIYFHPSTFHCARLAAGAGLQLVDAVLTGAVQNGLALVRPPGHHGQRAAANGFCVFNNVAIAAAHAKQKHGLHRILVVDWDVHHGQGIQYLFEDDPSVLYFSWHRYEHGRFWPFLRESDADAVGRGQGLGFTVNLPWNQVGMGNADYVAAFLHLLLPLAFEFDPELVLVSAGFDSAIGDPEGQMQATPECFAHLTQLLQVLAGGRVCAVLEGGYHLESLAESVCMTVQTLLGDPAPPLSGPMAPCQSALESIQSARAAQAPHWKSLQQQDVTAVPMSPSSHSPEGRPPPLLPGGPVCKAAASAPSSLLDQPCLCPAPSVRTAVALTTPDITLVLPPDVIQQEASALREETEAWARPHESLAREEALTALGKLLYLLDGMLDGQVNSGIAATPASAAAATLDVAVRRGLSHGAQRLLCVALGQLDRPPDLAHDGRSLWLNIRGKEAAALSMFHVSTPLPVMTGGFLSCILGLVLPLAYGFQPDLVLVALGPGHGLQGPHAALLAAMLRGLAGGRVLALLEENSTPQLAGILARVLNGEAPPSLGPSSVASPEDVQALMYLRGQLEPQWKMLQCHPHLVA

[6] = molecular target: RD RNA binding protein (RDBP) (human) (UniProt P18615)

Measured: binding

Human cytomegalovirus immediate-early protein 1 (from UniProt P13202 1-491)
binds: [1] | [2] | [3] | [4] | [5] | [6]
